Test results published in patent publication US7846710B2 (The Penn State Research Foundation, priority 1998, dated 2010).

Assay: general procedure: peptide synthesis; EDC / N-hydroxysuccinimide
Details: cyclisation step, on linear precursor

Substance: cyclo(SGGYLPPL)
- cyclisation yield: 80%
